Numbering of substitutions follows the chain as printed. This is one part of the list. For some assays here: At the low end of the ranking the order means little.
Key:
Conditions in all cases: yeast three-hybrid, YBZ-1, SC-Leu-His + 0.5 mM 3-AT, 4 days
[1] = molecular target: T1, PUM1 PUF domain R3-RRA C935R + Q939A (Homo sapiens) (UniProt Q14671)
T1 sequence: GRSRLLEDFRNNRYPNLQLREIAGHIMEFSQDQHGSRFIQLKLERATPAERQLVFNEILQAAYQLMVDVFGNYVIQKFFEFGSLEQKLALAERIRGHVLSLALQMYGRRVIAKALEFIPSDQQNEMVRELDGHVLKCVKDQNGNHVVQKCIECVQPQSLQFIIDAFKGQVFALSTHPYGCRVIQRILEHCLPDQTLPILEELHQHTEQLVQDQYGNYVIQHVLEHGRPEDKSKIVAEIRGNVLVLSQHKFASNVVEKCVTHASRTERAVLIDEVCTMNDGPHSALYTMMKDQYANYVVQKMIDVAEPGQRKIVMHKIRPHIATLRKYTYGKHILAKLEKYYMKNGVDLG

[2] = molecular target: T2, PUM1 PUF domain R3-RRE C935R + Q939E (UniProt Q14671)
T2 sequence: T1 sequence with A112E

[3] = molecular target: T3, PUM1 PUF domain R3-RRG C935R + Q939G (UniProt Q14671)
T3 sequence: T1 sequence with A112G

[4] = molecular target: T4, PUM1 PUF domain R3-RRK C935R + Q939K (UniProt Q14671)
T4 sequence: T1 sequence with A112K

[5] = molecular target: T5, PUM1 PUF domain R3-RRL C935R + Q939L (UniProt Q14671)
T5 sequence: T1 sequence with A112L

[6] = molecular target: T6, PUM1 PUF domain R3-RRP C935R + Q939P (UniProt Q14671)
T6 sequence: T1 sequence with A112P

[7] = molecular target: T7, PUM1 PUF domain R3-RRR C935R + Q939R (UniProt Q14671)
T7 sequence: T1 sequence with A112R

[8] = molecular target: T8, PUM1 PUF domain R3-RSA C935R + R936S + Q939A (UniProt Q14671)
T8 sequence: T1 sequence with R109S

[9] = molecular target: T9, PUM1 PUF domain R3-RSC C935R + R936S + Q939C (UniProt Q14671)
T9 sequence: T1 sequence with R109S, A112C

[10] = molecular target: T10, PUM1 PUF domain R3-RSF C935R + R936S + Q939F (Homo sapiens) (UniProt Q14671)
T10 sequence: T1 sequence with R109S, A112F

[11] = molecular target: T11, PUM1 PUF domain R3-RSG C935R + R936S + Q939G (UniProt Q14671)
T11 sequence: T1 sequence with R109S, A112G

[12] = molecular target: T12, PUM1 PUF domain R3-RSL C935R + R936S + Q939L (UniProt Q14671)
T12 sequence: T1 sequence with R109S, A112L

[13] = molecular target: T13, PUM1 PUF domain R3-RSR C935R + R936S + Q939R (UniProt Q14671)
T13 sequence: T1 sequence with R109S, A112R

[14] = molecular target: T14, PUM1 PUF domain R3-RSS C935R + R936S + Q939S (UniProt Q14671)
T14 sequence: T1 sequence with R109S, A112S

[15] = molecular target: T15, PUM1 PUF domain R3-RST C935R + R936S + Q939T (UniProt Q14671)
T15 sequence: T1 sequence with R109S, A112T

[16] = molecular target: T16, PUM1 PUF domain R3-RSV C935R + R936S + Q939V (UniProt Q14671)
T16 sequence: T1 sequence with R109S, A112V

[17] = molecular target: T17, PUM1 PUF domain R3-RSW C935R + R936S + Q939W (UniProt Q14671)
T17 sequence: T1 sequence with R109S, A112W

[18] = molecular target: T18, PUM1 PUF domain R3-RTC C935R + R936T + Q939C (UniProt Q14671)
T18 sequence: T1 sequence with R109T, A112C

[19] = molecular target: T19, PUM1 PUF domain R3-RTG C935R + R936T + Q939G (UniProt Q14671)
T19 sequence: T1 sequence with R109T, A112G

[20] = molecular target: T20, PUM1 PUF domain R3-RTM C935R + R936T + Q939M (UniProt Q14671)
T20 sequence: T1 sequence with R109T, A112M

[21] = molecular target: T21, PUM1 PUF domain R3-RTR C935R + R936T + Q939R (UniProt Q14671)
T21 sequence: T1 sequence with R109T, A112R

[22] = molecular target: T22, PUM1 PUF domain R3-RTV C935R + R936T + Q939V (UniProt Q14671)
T22 sequence: T1 sequence with R109T, A112V

[23] = molecular target: T23, PUM1 PUF domain R3-RTW C935R + R936T + Q939W (UniProt Q14671)
T23 sequence: T1 sequence with R109T, A112W

[24] = molecular target: T24, PUM1 PUF domain R3-RVA C935R + R936V + Q939A (UniProt Q14671)
T24 sequence: T1 sequence with R109V

[25] = molecular target: T25, PUM1 PUF domain R3-RVM C935R + R936V + Q939M (UniProt Q14671)
T25 sequence: T1 sequence with R109V, A112M

[26] = molecular target: T26, PUM1 PUF domain R3-RVQ C935R + R936V (UniProt Q14671)
T26 sequence: T1 sequence with R109V, A112Q

[27] = molecular target: T27, PUM1 PUF domain R3-RVR C935R + R936V + Q939R (UniProt Q14671)
T27 sequence: T1 sequence with R109V, A112R

[28] = molecular target: T28, PUM1 PUF domain R3-RVS C935R + R936V + Q939S (UniProt Q14671)
T28 sequence: T1 sequence with R109V, A112S

[29] = molecular target: T29, PUM1 PUF domain R3-RVT C935R + R936V + Q939T (UniProt Q14671)
T29 sequence: T1 sequence with R109V, A112T

GGCUAGAACUAGUGGAUCCCCCGGCGCCCGGCGGCUCGAGCCCGGGUAAGUGUAACUAGUCUGCAUGCCGCCGGGCGCCAUGCCUGCAGGUCGACUCUAGAAAACAUG
binding signal (log2 enrichment (interaction score)) [1]: -2.01
binding signal (log2 enrichment (interaction score)) [2]: -3.4
binding signal (log2 enrichment (interaction score)) [3]: -2.33
binding signal (log2 enrichment (interaction score)) [4]: < -6.46
binding signal (log2 enrichment (interaction score)) [5]: -6.8
binding signal (log2 enrichment (interaction score)) [6]: < -7.28
binding signal (log2 enrichment (interaction score)) [7]: -6.39
binding signal (log2 enrichment (interaction score)) [8]: -2.98
binding signal (log2 enrichment (interaction score)) [9]: < -7.67
binding signal (log2 enrichment (interaction score)) [10]: -1.3
binding signal (log2 enrichment (interaction score)) [11]: -4.67
binding signal (log2 enrichment (interaction score)) [12]: -6.88
binding signal (log2 enrichment (interaction score)) [13]: < -8.7
binding signal (log2 enrichment (interaction score)) [14]: < -8.98
binding signal (log2 enrichment (interaction score)) [15]: -2.33
binding signal (log2 enrichment (interaction score)) [16]: < -9.07
binding signal (log2 enrichment (interaction score)) [17]: < -6.78
binding signal (log2 enrichment (interaction score)) [18]: < -6.63
binding signal (log2 enrichment (interaction score)) [19]: -5.28
binding signal (log2 enrichment (interaction score)) [20]: < -6.85
binding signal (log2 enrichment (interaction score)) [21]: < -6.83
binding signal (log2 enrichment (interaction score)) [22]: < -8.46
binding signal (log2 enrichment (interaction score)) [23]: < -8.59
binding signal (log2 enrichment (interaction score)) [24]: -4.84
binding signal (log2 enrichment (interaction score)) [25]: < -7.89
binding signal (log2 enrichment (interaction score)) [26]: < -9.22
binding signal (log2 enrichment (interaction score)) [27]: -7.55
binding signal (log2 enrichment (interaction score)) [28]: < -8.22
binding signal (log2 enrichment (interaction score)) [29]: < -8.84

Source: publication PMC8384837
